In paper PMC8222256:
Results are given in words; binding and its absence hold for the method and conditions named. Binding seen in cells or lysates may run through a third protein. Some binding calls cover weakened binding; strength is not graded here.

Protein sequences, listed by entry. Tags and fused reporters are not part of them. Lines headed by an entry give the natural chain unless they say otherwise; changes in a name come on top. Chains listed by the source or under a name are the forms on record and can include a tag or linker.
HA-tagged ATRX (wild-type) (P46100, form named): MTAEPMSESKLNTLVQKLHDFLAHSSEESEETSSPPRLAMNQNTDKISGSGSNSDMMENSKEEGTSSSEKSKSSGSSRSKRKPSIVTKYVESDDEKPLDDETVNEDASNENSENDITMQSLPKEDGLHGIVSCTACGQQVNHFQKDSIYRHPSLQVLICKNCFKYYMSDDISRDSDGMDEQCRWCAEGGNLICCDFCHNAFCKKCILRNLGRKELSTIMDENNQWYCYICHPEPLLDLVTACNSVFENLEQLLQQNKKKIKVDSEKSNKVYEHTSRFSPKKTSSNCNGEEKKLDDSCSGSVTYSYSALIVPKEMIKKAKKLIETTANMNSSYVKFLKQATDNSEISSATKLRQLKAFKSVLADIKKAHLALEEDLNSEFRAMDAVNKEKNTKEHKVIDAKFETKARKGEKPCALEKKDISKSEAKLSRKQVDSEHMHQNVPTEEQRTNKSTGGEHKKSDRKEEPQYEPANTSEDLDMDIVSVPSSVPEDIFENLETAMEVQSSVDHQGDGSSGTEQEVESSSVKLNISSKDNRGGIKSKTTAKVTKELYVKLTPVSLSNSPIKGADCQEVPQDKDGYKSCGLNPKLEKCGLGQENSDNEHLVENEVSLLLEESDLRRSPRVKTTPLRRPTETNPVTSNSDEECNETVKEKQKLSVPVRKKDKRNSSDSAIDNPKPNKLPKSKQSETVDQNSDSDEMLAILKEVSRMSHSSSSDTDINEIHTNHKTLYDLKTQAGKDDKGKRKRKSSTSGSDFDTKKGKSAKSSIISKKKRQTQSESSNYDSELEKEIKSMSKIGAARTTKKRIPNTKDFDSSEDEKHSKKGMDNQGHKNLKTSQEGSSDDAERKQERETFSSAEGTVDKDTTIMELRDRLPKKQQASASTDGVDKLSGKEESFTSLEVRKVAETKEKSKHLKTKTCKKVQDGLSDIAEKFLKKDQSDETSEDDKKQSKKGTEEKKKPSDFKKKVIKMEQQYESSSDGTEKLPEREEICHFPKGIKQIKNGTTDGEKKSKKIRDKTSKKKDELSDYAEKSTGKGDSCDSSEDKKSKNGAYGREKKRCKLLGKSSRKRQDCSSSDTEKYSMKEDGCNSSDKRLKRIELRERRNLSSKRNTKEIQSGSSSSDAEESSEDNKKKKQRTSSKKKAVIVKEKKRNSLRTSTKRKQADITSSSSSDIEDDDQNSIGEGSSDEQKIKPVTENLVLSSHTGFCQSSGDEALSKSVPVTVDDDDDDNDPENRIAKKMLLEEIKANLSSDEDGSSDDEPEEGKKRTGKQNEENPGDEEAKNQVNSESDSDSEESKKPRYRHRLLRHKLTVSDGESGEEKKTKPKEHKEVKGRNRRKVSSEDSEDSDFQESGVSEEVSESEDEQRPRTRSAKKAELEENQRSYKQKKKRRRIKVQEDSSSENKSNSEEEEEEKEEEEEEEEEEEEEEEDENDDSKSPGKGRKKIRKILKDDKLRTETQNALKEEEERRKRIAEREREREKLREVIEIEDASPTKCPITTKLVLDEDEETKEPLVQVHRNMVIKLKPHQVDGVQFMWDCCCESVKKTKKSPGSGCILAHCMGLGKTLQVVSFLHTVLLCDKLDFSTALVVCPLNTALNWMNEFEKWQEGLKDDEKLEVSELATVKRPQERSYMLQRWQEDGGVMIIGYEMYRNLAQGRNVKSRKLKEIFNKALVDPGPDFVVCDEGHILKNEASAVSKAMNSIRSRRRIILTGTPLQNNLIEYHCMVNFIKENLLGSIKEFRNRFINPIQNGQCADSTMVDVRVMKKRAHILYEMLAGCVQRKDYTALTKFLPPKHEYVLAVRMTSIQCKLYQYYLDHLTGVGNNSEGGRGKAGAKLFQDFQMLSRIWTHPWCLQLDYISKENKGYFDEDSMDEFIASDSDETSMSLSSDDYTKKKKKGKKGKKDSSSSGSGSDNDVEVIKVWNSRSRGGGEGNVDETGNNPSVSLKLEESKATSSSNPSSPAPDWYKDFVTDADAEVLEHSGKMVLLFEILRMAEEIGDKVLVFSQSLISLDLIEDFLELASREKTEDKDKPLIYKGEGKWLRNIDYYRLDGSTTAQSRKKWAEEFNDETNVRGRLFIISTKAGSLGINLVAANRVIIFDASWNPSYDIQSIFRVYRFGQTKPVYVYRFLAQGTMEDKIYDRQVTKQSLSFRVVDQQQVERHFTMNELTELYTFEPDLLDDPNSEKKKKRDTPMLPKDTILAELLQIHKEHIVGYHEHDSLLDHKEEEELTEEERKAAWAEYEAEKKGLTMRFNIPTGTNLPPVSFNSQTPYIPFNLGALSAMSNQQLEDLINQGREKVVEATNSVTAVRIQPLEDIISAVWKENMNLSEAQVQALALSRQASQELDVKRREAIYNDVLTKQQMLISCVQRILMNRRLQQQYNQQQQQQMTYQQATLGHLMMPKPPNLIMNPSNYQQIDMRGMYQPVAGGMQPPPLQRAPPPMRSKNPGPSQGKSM
HA-tagged ATRX L1238A (P46100, form named): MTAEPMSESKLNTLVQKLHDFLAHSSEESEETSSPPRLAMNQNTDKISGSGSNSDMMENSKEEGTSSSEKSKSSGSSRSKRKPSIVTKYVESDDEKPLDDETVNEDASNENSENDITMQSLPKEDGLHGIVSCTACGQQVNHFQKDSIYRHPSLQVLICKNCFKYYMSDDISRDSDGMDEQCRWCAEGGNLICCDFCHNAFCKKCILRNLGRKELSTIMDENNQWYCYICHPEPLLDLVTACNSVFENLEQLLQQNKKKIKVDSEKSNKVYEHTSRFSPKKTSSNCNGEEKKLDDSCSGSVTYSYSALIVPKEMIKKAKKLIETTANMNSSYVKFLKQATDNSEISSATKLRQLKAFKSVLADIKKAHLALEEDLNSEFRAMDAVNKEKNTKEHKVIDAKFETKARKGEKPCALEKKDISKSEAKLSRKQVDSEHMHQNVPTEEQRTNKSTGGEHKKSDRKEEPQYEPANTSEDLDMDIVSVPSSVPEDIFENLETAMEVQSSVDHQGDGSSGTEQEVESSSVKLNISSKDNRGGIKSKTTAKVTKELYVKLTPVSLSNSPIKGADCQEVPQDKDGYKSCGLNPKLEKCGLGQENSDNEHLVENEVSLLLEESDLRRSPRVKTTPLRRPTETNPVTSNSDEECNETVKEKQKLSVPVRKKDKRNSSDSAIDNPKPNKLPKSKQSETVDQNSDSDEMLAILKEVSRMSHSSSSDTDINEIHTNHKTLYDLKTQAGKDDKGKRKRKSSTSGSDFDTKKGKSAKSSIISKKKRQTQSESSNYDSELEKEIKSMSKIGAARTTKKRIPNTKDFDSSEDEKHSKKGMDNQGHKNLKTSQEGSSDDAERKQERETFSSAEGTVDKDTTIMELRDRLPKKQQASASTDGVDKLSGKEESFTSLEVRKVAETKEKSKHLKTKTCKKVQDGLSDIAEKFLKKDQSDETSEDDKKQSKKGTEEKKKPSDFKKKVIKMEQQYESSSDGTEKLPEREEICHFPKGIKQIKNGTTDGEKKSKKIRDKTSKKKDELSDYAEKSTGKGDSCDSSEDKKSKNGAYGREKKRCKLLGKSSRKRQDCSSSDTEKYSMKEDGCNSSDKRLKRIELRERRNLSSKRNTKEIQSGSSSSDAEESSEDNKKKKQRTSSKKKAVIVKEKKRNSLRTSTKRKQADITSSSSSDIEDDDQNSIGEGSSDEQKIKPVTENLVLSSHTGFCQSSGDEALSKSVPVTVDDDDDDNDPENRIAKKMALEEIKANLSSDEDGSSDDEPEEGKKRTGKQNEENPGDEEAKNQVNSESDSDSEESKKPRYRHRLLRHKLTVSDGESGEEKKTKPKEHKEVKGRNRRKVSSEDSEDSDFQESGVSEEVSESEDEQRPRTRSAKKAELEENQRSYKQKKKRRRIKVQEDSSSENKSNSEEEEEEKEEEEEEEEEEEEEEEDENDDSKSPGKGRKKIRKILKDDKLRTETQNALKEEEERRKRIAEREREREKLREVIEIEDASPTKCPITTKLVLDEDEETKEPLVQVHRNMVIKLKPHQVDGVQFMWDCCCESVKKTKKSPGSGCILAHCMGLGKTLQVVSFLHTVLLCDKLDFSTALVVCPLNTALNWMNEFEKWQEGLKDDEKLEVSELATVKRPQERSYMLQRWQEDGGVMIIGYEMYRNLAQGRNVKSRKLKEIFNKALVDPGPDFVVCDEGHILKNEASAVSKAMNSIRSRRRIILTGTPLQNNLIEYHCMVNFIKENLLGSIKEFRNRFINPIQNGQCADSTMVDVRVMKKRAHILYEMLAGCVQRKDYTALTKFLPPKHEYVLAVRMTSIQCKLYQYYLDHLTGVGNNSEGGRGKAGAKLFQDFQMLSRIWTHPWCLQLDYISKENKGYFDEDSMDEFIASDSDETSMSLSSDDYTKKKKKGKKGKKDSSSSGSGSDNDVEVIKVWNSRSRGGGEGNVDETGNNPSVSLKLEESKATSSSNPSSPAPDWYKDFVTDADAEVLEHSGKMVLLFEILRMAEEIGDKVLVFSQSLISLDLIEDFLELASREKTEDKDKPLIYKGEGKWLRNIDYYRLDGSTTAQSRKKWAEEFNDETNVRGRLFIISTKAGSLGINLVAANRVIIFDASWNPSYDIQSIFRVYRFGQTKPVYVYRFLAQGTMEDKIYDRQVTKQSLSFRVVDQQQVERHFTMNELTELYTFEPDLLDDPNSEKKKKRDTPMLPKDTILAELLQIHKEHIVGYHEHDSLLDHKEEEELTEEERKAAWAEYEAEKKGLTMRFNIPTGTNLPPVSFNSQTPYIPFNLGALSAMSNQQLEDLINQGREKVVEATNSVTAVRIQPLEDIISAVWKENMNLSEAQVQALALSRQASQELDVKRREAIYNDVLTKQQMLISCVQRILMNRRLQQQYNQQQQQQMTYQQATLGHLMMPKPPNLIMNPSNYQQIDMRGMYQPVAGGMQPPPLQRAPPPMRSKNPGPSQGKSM
UniProt P97310: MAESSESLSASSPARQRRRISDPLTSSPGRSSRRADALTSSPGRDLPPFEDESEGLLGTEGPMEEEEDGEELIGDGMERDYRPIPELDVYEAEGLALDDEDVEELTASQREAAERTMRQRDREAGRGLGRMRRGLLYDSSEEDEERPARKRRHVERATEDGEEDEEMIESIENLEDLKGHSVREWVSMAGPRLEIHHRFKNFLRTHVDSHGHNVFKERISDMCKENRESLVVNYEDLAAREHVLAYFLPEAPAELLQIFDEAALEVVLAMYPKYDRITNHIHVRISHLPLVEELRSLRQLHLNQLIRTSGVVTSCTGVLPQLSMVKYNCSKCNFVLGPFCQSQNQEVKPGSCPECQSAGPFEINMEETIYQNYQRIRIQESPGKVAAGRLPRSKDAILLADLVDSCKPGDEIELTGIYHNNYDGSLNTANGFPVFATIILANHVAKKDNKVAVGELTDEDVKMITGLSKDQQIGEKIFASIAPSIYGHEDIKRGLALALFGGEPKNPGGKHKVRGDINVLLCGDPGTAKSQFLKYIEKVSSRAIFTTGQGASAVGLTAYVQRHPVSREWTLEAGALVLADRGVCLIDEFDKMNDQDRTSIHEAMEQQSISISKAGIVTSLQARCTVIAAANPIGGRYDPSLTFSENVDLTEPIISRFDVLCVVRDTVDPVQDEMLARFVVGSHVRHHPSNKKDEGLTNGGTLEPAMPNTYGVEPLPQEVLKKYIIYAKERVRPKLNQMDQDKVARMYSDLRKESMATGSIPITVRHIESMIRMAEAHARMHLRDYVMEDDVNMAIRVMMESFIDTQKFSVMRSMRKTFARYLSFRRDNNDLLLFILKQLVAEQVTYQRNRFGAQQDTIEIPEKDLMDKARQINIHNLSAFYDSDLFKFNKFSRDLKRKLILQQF
UniProt O35613: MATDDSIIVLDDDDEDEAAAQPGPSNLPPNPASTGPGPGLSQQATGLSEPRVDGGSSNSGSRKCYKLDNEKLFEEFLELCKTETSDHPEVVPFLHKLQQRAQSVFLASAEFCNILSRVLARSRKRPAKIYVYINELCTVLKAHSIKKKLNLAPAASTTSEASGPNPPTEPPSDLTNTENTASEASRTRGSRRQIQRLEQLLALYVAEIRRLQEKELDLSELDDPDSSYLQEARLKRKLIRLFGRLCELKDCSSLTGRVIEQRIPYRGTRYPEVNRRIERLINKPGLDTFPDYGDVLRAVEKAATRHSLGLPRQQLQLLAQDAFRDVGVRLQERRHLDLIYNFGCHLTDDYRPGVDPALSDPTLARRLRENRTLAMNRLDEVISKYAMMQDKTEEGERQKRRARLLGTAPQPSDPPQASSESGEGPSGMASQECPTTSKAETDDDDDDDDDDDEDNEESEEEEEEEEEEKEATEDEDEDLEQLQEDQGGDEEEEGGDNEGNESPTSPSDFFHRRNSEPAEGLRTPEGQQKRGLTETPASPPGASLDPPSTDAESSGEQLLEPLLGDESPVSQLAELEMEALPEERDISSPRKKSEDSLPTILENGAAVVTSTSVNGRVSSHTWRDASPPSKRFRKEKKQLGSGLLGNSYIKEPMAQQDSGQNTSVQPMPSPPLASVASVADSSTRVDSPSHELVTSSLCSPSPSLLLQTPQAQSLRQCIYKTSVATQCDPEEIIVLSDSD

Assays:
[1] = target: ATRX (mouse (endogenous in ESCs)) (UniProt Q61687); assay: co-IP; 0.5 mg ESC nuclear extract, 2 μg antibody on Dynabeads Protein A or G, 4 °C, 2 h, washes with 150 mM KCl buffer, immunoblot; wild-type, DAXX KO, HIRA KO, H3.3 KO, H3.3 KO addback and ATRX KO addback ESCs; lysates also treated with ethidium bromide or RNase A
[2] = target: ATRX (mouse (endogenous in ESCs)) (UniProt Q61687); assay: proximity ligation; fixed and permeabilised mouse ESCs, ATRX and MCM antibodies, Duolink; wild-type, DAXX KO and ATRX KO addback ESCs; ATRX KO ESCs as control
[3] = target: HA-tagged ATRX (wild-type) (human) (UniProt P46100); assay: co-IP; 0.5 mg ESC nuclear extract, 2 μg antibody on Dynabeads Protein A or G, 4 °C, 2 h, washes with 150 mM KCl buffer, immunoblot; wild-type, DAXX KO, HIRA KO, H3.3 KO, H3.3 KO addback and ATRX KO addback ESCs; lysates also treated with ethidium bromide or RNase A
[4] = target: GFP-tagged ATRX (mouse (endogenous in ESCs)) (UniProt Q61687); assay: co-IP; immunoprecipitation from cell lysates of single ATRX-GFP ESC clones
[5] = target: HIRA (mouse (endogenous in ESCs)) (UniProt Q61666); assay: co-IP; 0.5 mg ESC nuclear extract, 2 μg antibody on Dynabeads Protein A or G, 4 °C, 2 h, washes with 150 mM KCl buffer, immunoblot; wild-type, DAXX KO, HIRA KO, H3.3 KO, H3.3 KO addback and ATRX KO addback ESCs; lysates also treated with ethidium bromide or RNase A
[6] = target: HA-tagged ATRX L1238A (human) (UniProt P46100); assay: as above
[7] = target: HA-tagged ATRX K1562R (human) (UniProt P46100); assay: as above
[8] = target: HA-tagged ATRX L1238A (human) (UniProt P46100); assay: proximity ligation; fixed and permeabilised mouse ESCs, ATRX and MCM antibodies, Duolink; wild-type, DAXX KO and ATRX KO addback ESCs; ATRX KO ESCs as control
[9] = target: HA-tagged ATRX K1562R (human) (UniProt P46100); assay: as above

| Molecule | binding [1] | binding [2] | binding [3] | further results |
| --- | --- | --- | --- | --- |
| MCM2 (from UniProt P97310 1-904) | binds weakly | binds | – | – |
| Mcm7 (from UniProt Q61881 1-719) | binds weakly | – | – | – |
| DAXX (from UniProt O35613 1-739) | binds | – | binds | binding [4]: binds |
| MCM4 (protein, UniProt P49717 1-862) MSSPASTPSRRSSRRGRVTPTQSLRSEESRSSPNRRRRGEDSSTGELLPMPTSPGADLQSPPAQNALFSSPPQMHSLAIPLDFDVSSPLTYGTPSSRVEGTPRSGVRGTPVRQRPDLGSARKGLQVDLQSDGAAAEDIVPSEQSLGQKLVIWGTDVNVATCKENFQRFLQCFTDPLAKEEENVGIDITQPLYMQQLGEINITGEPFLNVNCEHIKSFSKNLYRQLISYPQEVIPTFDMAVNEIFFDRYPDSILEHQIQVRPFNALKTKSMRNLNPEDIDQLITISGMVIRTSQLIPEMQEAFFQCQVCAHTTRVEIDRGRIAEPCSCVHCHTTHSMALIHNRSFFSDKQMIKLQESPEDMPAGQTPHTIVLFAHNDLVDKVQPGDRVNVTGIYRAVPIRVNPRVSNVKSVYKTHIDVIHYRKTDAKRLHGLDEEAEQKLFSEKRVKLLKELSRKPDIYERLASALAPSIYEHEDIKKGILLQLFGGTRKDFSHTGRGKFRAEINILLCGDPGTSKSQLLQYVYNLVPRGQYTSGKGSSAVGLTAYVMKDPETRQLVLQTGALVLSDNGICCIDEFDKMNESTRSVLHEVMEQQTLSIAKAGIICQLNARTSVLAAANPIESQWNPKKTTIENIQLPHTLLSRFDLIFLMLDPQDEAYDRRLAHHLVSLYYQSEEQVEEEFLDMAVLKDYIAYAHSTIMPRLSEEASQALIEAYVNMRKIGSSRGMVSAYPRQLESLIRLAEAHAKVRFSNKVEAIDVEEAKRLHREALKQSATDPRTGIVDISILTTGMSATSRKRKEELAEALRKLILSKGKTPALKYQQLFEDIRGQSDTAITKDMFEEALRALADDDFLTVTGKTVRLL | binds weakly | binds | – | – |
| MCM3 (protein, UniProt P25206 1-812) MAGTVVLDDVELREAQRDYLDFLDDEEDQGIYQNKVRELISDNQYRLIVSVNDLRRKNEKRANRLLNNAFEELVAFQRALKDFVASIDATYAKQYEEFYIGLEGSFGSKHVSPRTLTSCFLSCVVCVEGIVTKCSLVRPKVVRSVHYCPATKKTIERRYSDLTTLVAFPSSSVYPTKDEENNPLETEYGLSVYKDHQTITIQEMPEKAPAGQLPRSVDVILDDDLVDKVKPGDRIQVVGTYRCLPGKKGCYTSGTFRTVLIACNVKQMSKDIQPAFSADDIAKIKKFSKTRSKDVFEQLARSLAPSIHGHDYVKKAILCLLLGGVERELENGSHIRGDINILLIGDPSVAKSQLLRYVLCTAPRAIPTTGRGSSGVGLTAAVTTDQETGERRLEAGAMVLADRGVVCIDEFDKMSDMDRTAIHEVMEQGRVTIAKAGIHARLNARCSVLAAANPVYGRYDQYKTPMENIGLQDSLLSRFDLLFIMLDQMDPEQDREISDHVLRMHQYRAPGEQDGDALPLGSSVDILATDDPDFTQDDQQDTRIYEKHDSLLHGTKKKKEKMVSAAFMKKYIHVAKIIKPTLTQESAAYIAEEYSRLRSQDSMSSDTARTSPVTARTLETLIRLATAHAKARMSKTVDLQDAEEAVELVQYAYFKKVLEKEKKRKKASEDESDLEDEEEKSQEDTEQKRKRRKTHAKDGESYDPYDFSEAETQMPQVHTPKTDDSQEKTDDSQETQDSQKVELSEPRLKAFKAALLEVFQEAHEQSVGMLHLTESINRNREEPFSSEEIQACLSRMQDDNQVMVSEGIVFLI | – | binds | – | – |
| Mcm6 (protein, UniProt P97311 1-821) MDLAAAAEPGAGSQHPEVRDEVAEKCQKLFLDFLEEFQGSDGEIKYLQFAEELIRPERNTLVVSFADLEQFNQQLSTTIQEEFYRVYPYLCRALKTFVKDRKEIPFAKDFYVAFQDLPTRHKIRELTSSRIGLLTRISGQVVRTHPVHPELVSGTFLCLDCQTVIKDVEQQFKYTQPNICRNPVCANRKRFLLDTNKSRFVDFQKVRIQETQAELPRGSIPRSLEVILRAEAVESAQAGDRCDFTGALIVVPDVSKLSTPGARAETNSRVSGADGYETEGIRGLRALGVRDLSYRLVFLACHVAPTNPRFGGKELRDEEQTAESIKNQMTVKEWEKVFEMSQDKNLYHNLCTSLFPTIHGNDEVKRGVLLMLFGGVPKTTGEGTSLRGDINVCIVGDPSTAKSQFLKHVDEFSPRAVYTSGKASSAAGLTAAVVRDEESHEFVIEAGALMLADNGVCCIDEFDKMDMRDQVAIHEAMEQQTISITKAGVKATLNARTSILAAANPVSGHYDRSKSLKQNINLSAPIMSRFDLFFILVDECNEVTDYAIARRIVDLHSRIEESIDRVYSLDDIRRYLLFARQFKPKISKESEDFIVEQYKRLRQRDGSGVTKSSWRITVRQLESMIRLSESMARMHCCDEVQPKHVKEAFRLLNKSIIRVETPDVNLDQEEEIQMETDEGQGGVNGHADSPAPVNRFNGSSEDASQETVSKPSLRLGFAEYCRISNLIVLHLRKMEEEEDESALKRSELVNWYLKEIESEIDSEEELINKKTIIEKVVHRLTHYDHVLIELTQAGLKGSSEGSESYEEDPYLVVNPNYLLED | binds weakly | binds | binds | binding [5]: no binding; binding [6]: binds; binding [7]: binds; binding [8]: binds; binding [9]: binds |
